Data: article doi:10.1101/2021.12.09.472000
Results are given in words; binding and its absence hold for the method and conditions named. Binding seen in cells or lysates may run through a third protein. Some entries that bind do so weakly or less than the wild type.

Key:
Assay in all cases: FRET or BRET
[1] = target: human 5-HT2A serotonin receptor, wild type, with C-terminal Renilla luciferase (RLuc8) (human) (UniProt P28223)
[2] = target: I197V variant human 5-HT2A receptor with C-terminal RLuc8 (human) (UniProt P28223)
[3] = target: A230T variant human 5-HT2A receptor with C-terminal RLuc8 (human) (UniProt P28223)
[4] = target: T25N variant human 5-HT2A receptor with C-terminal RLuc8 (human) (UniProt P28223)
[5] = target: S12N variant human 5-HT2A receptor with C-terminal RLuc8 (human) (UniProt P28223)
[6] = target: D48N variant human 5-HT2A receptor with C-terminal RLuc8 (human) (UniProt P28223)
[7] = target: H452Y variant human 5-HT2A receptor with C-terminal RLuc8 (human) (UniProt P28223)
[8] = target: A447V variant human 5-HT2A receptor with C-terminal RLuc8 (human) (UniProt P28223)

Measured: binding

Venus-tagged N-terminal β-arrestin1 (from UniProt P49407 1-418)
binds: all assays above
